Test results published in paper doi:10.1101/816264.
These are yes or no findings as the source states them, for the method shown. Binding seen in cells or lysates may run through a third protein. Some results given as binding are weak or reduced against the parent protein; the word gives no strength.

Target: T1, hASIC1a with AzF at Glu177 (human) (UniProt P78348)
T1 sequence (chain, 4-azido-L-phenylalanine (AzF) at position 177): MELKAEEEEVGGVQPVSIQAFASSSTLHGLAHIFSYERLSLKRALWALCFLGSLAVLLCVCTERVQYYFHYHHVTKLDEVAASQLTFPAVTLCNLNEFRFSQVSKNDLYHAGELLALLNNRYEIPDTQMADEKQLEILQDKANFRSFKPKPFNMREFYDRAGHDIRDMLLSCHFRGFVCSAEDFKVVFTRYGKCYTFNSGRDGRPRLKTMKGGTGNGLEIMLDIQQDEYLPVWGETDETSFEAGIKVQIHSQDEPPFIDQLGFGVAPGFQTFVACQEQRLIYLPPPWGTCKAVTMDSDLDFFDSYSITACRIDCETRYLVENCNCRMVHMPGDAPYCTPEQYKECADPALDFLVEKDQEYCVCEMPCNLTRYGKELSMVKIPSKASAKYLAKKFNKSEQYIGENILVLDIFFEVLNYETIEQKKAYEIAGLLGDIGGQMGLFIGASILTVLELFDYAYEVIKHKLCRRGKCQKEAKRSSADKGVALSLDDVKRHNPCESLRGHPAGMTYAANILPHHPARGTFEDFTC
Assay: cross-linking

- binding: binds
Substance: big dynorphin (from UniProt P01213 207-238) (peptide)
